Data published in patent US7834152B2, “Antagonists of interleukin-15” (Beth Israel Deaconess Medical Center, Inc., priority 1996, dated 2010).
“Also recorded” adds a separate entry of the source. For at least one compound, name, drawing or mass did not settle the structure.

Tests used:
[1] = test system: IL-15Rα; experiment: Effect of immunosuppressive drugs on PHA-induced IL-15Rα expression by PBMCs (FACS); type: cell-based, human; settings: drug preincubated 20 minutes before PHA, cultured 3 days; CsA 150 ng/ml, rapamycin 5 ng/ml, dexamethasone 0.1 mg/ml
[2] = test system: PHA-activated PBMCs; experiment: Proliferative response to IL-2 or IL-15 of PBMCs pre-treated with immunosuppressive drugs and PHA; settings: cells pre-treated with PHA and drug, washed, cultured with IL-15 2 days
[3] = test system: PHA-stimulated PBMCs; experiment: Inhibition of IL-2 or IL-15 stimulated proliferation of PHA-stimulated PBMCs; type: cell-based, human; settings: drug 15 minutes at 37° C.

Row | Compound | PHA-induced expression of IL-15Rα [1] | proliferative response to IL-15 [2] | inhibition of IL-2 induced proliferation ([3]; then IL-2 for 38 hours) | inhibition of IL-15 induced proliferation ([3]; then IL-15 for 38 hours)
1 | C[C@@H]1C[C@H]2[C@@H]3CCC4=CC(=O)C=C[C@]4(C)[C@@]3(F)[C@@H](O)C[C@]2(C)[C@@]1(O)C(=O)CO [dexamethasone] | powerfully blocked; also recorded: do not express IL-15Rα_as vigorously | proliferated poorly; also recorded: do not proliferate as robustly | – | –
2 | CO[C@H]1C[C@@H]2CC[C@@H](C)[C@@](O)(O2)C(=O)C(=O)N2CCCC[C@H]2C(=O)O[C@H]([C@H](C)C[C@@H]2CC[C@@H](O)[C@H](OC)C2)CC(=O)[C@H](C)/C=C(\C)[C@@H](O)[C@@H](OC)C(=O)[C@H](C)C[C@H](C)/C=C/C=C/C=C/1C [rapamycin] | enhanced IL-15Rα expression | – | equally dose-sensitive to inhibition | equally dose-sensitive to inhibition
